Measurements taken from US20200216499A1, “ANGIOTENSIN-(1-7) ANALOGS AND METHODS RELATING THERETO” (WAKE FOREST UNIVERSITY HEALTH SCIENCES, priority 2015, published 2020).
At least one peptide structure holds a part that was inferred or is arguable (an end, a ring closure or a residue).

Tested on: 4T1 murine triple negative breast cancer cells
Assay: In vitro inhibition of cancer cell growth, cell count after 3 days
Type: cell-based
Conditions: 100 nM, DMEM 1% FBS, Ang-(1-7) added daily, analogs added once at start

SMILES: CC[C@H](C)[C@H](NC(=O)[C@H](Cc1ccc(O)cc1)NC(=O)[C@@H](NC(=O)[C@H](CCCNC(=N)N)NC(=O)[C@@H](N)CC(=O)O)C(C)C)C(=O)N[C@@H](Cc1c[nH]cn1)C(=O)N1CCC[C@H]1C(=O)O [Ang-(1-7), Asp-Arg-Val-Tyr-Ile-His-Pro]
- proliferation of 4T1 breast cancer cells vs untreated control: effectively reduced proliferation
